Assay results published in PubChem BioAssay AID493014 (National Center for Advancing Translational Sciences (NCATS), 2011).
The other results are listed elsewhere or left out. Shown are side measurements of this screen, not its main read-out; they come without a call. Most of these compounds were active or inconclusive in the main read-out, so they are no random draw. Potencies come from curve fits of mixed quality, noted in brackets.

Experiment: qHTS Assay to Find Inhibitors of Chronic Active B-Cell Receptor Signaling
Conditions: ABC-DLBCL IkBa-CBG/CBR reporter, luminescence ratio (green luciferase fused to IkBa over red control in TMD8 lymphoma cells), 4 h
How it was run: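 TMD8 human ABC-DLBCL cells with doxycycline-inducible IκBα–green luciferase fusion and unfused red luciferase, in 0.5% FBS medium; compounds up to 46 uM, 4 h at 37C. Green/red luminescence ratio, filter-overlap corrected, fitted to concentration-response curves.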

[1] = measured here: CBR red luminescence, cell number
[2] = measured here: IkBa-CBG green luminescence

Compound | AC50 [1] | AC50 [2]
O=C(CSc1ccccc1)N[C@@H](Cc1ccccc1)C(=O)O | 8.91 µM [rising, partial curve, poor fit] | –
CC(C)(C)c1[nH]nc2c1C(c1ccco1)C(C#N)=C(N)O2 (configuration not stated) | 17.8 µM [falling, single point] | –
C/C(=N\NC(=O)c1cc(-c2ccc(O)cc2)nc2ccccc12)c1cccnc1 | 3.98 µM [rising, full curve, poor fit] | –
Cn1cc(C(=O)Nc2ccc(F)c(Cl)c2)cn1 | 13 µM [rising, partial curve, poor fit] | –
O=C(c1ccco1)N1CCN(Cc2ccc(Cl)cc2)CC1 | 22.4 µM [rising, single point] | –
COC(=O)C(NC(=O)c1ccccc1)(Nc1nc(C)cs1)C(F)(F)F (configuration not stated) | 11.2 µM [rising, partial curve, poor fit] | –
C=CCc1cccc2cc(C(=O)NCc3cccnc3)c(=O)oc12 | 20.6 µM [rising, single point] | –
O=C1Nc2ccc(NS(=O)(=O)c3cccs3)c3cccc1c23 | 11.2 µM [rising, partial curve] | 8.91 µM [falling, partial curve, poor fit]
CC(C)Cc1nnc(NC(=O)CSc2ccccn2)s1 | 0.366 µM [rising, partial curve, poor fit] | –
CN1C(=O)/C(=C/c2cccc(Cl)c2)Sc2ccc(C(=O)N3CCOCC3)cc21 | 22.4 µM [falling, partial curve, poor fit] | –
CC(=Nc1ccc(Br)cc1)c1sc2ccccc2c1O | 10 µM [rising, partial curve, poor fit] | –
C/C(Cc1ccccc1)=N\NC(=O)c1ccccn1 | 12.6 µM [falling, partial curve, poor fit] | –
COc1ccc(CN(C(=O)CN2C(=O)C(C)Oc3ccccc32)C2CCCC2)c(OC)c1 (configuration not stated) | 29.1 µM [falling, single point] | –
O=C(CN1CCOCC1)Nc1nc2cc([N+](=O)[O-])ccc2s1 | 29.1 µM [falling, single point] | –
O=C(CN1C(=O)CSC1=O)c1ccccc1 | 0.146 µM [falling, full curve, poor fit] | –
CCN1CCN(C(=O)CCCCCn2c(=O)[nH]c3cc(C(=O)OC)ccc3c2=O)CC1 | 8.2 µM [falling, partial curve] | 9.2 µM [rising, partial curve, poor fit]
CC(NC(=O)COC(=O)C12CC3CC(CC(Br)(C3)C1)C2)c1ccccc1 (configuration not stated) | 23.1 µM [rising, partial curve, poor fit] | –
COc1ccc(CCn2c(N3CCN(Cc4ccccc4)CC3)nc3c2c(=O)[nH]c(=O)n3C)cc1 | 20 µM [rising, partial curve, poor fit] | –
C/C(=N\NC(=O)c1ccn(C)n1)c1cccc(NC(=O)c2ccncc2)c1 | 29.1 µM [falling, single point] | –
Cc1ccc(-c2nc(NC(=O)c3nn(C)cc3[N+](=O)[O-])sc2C)cc1C | 3.26 µM [falling, full curve] | –
Cc1ccccc1/C=C1\SC(=S)N(/N=C/c2cc([N+](=O)[O-])ccc2O)C1=O | 10 µM [falling, single point] | –

Compound | AC50 [1] | AC50 [2]
Cn1cc([N+](=O)[O-])c(C(=O)N(Cc2ccccc2)Cc2ccccc2)n1 | 6.51 µM [rising, partial curve, poor fit] | –
NS(=O)(=O)c1cccc(NC(=O)CCCC2CCCCC2)c1 | 0.708 µM [falling, full curve] | –
Nc1ccc(-c2cnc(-c3ccc(N)cc3)nc2)cc1 | 12.6 µM [falling, partial curve, poor fit] | –
CCCCc1nnc(NC(=O)c2ccccc2OCc2c(C)noc2C)s1 | 14.6 µM [falling, single point] | –
O=C(N/N=C/c1ccncc1)c1ccccc1OCc1ccc(Br)cc1 | 9.2 µM [falling, partial curve] | –
Cc1cc(Cn2nc(C(=O)NCc3cccc(Br)c3)cc2-c2ccccc2)on1 | 29.1 µM [falling, single point] | –
O=c1[nH]c(=S)c2ncn(-c3ccccc3)c2[nH]1 | 25.1 µM [falling, single point] | –
CCSc1ncnc2sc3c(c12)CCC3 | 29.1 µM [rising, single point] | –
N#Cc1ccsc1NC(=O)CN1CCN(S(=O)(=O)c2ccccc2C(F)(F)F)CC1 | 8.2 µM [rising, partial curve, poor fit] | –
CCOC(=O)c1nnn(-c2ccc([N+](=O)[O-])cc2[N+](=O)[O-])c1C | 12.6 µM [falling, partial curve, poor fit] | –
CC1Cc2ccccc2N1c1ncnc2nc[nH]c12 (configuration not stated) | 0.259 µM [falling, full curve, poor fit] | –
Cc1ccc(-c2csc(NC(=O)c3ccccc3F)c2C(=O)O)cc1 | 11.2 µM [falling, partial curve] | –
CCCNC(=O)CSc1nnc(C)s1 | 6.51 µM [rising, single point] | –
O=C(O)CNS(=O)(=O)Cc1ccccc1 | 31.6 µM [falling, single point] | –
O=C(O)CCN(CCC(=O)O)c1ccccc1 | 23.1 µM [rising, partial curve, poor fit] | –
CC(C)N1C(=O)/C(=C\c2nc3ccccc3c(=O)[nH]2)c2ccccc21 | 29.1 µM [falling, single point] | 25.9 µM [falling, partial curve, poor fit]
COC(=O)c1sc(NC(=O)c2c(C)noc2C)nc1C | 35.5 µM [falling, single point] | –
Cc1ccc(Nc2c(-c3ccc(N4CCOCC4)cc3)nc3ncccn23)cc1 | 6.51 µM [rising, partial curve] | 0.461 µM [falling, partial curve, poor fit]
O=C(CNc1n[nH]c(=O)[nH]c1=O)N/N=C/C1CC=CCC1 (configuration not stated) | 7.08 µM [rising, partial curve, poor fit] | –
Cc1ccc2c(CC(=O)NCc3ccc4c(c3)OCO4)coc2c1 | 7.31 µM [falling, partial curve, poor fit] | –
O=C(CSc1ccccn1)Nc1ccc(Cl)cn1 | 14.1 µM [falling, single point] | –

3 entries already listed, sorted by SMILES length, largest number first:
Compound | AC50 [1] | AC50 [2]
CC(=Nc1ccc(Br)cc1)c1sc2ccccc2c1O | 10 µM [rising, partial curve, poor fit] | –
Cn1cc(C(=O)Nc2ccc(F)c(Cl)c2)cn1 | 13 µM [rising, partial curve, poor fit] | –
O=C(CN1C(=O)CSC1=O)c1ccccc1 | 0.146 µM [falling, full curve, poor fit] | –

Continued.

Compound | AC50 [1] | AC50 [2]
O=C(OCc1csc(-c2ccccc2)n1)C1=NN(c2ccccc2)C(=O)CC1 | 6.51 µM [rising, partial curve, poor fit] | –
COc1ccc(/C=C/C(=O)O/N=C(\N)c2ccccc2)cc1OC | 29.1 µM [falling, single point] | –
CCN1C(=O)c2cccc3c(S(=O)(=O)Nc4nc(C)cs4)ccc1c23 | 11.2 µM [rising, partial curve] | 5.62 µM [falling, partial curve]
CCCCNC(=S)NNC(=O)c1ccc(Br)o1 | – | 18.4 µM [falling, partial curve, poor fit]
Cc1nn(CC(=O)O)c(C)c1Cl | 7.31 µM [rising, partial curve, poor fit] | –
CCCn1c(=O)c(C(=O)NNC(=O)c2cccc([N+](=O)[O-])c2)c(O)c2ccccc21 | 10 µM [falling, partial curve, poor fit] | –
O=C(C1=C[C@@H](c2coc3ccccc3c2=O)C[C@@H](OCc2ccc(CO)cc2)O1)N1CCN(Cc2ccc3c(c2)OCO3)CC1 | 0.501 µM [rising, partial curve, poor fit] | –
Cc1ccc2nc3n(c(=O)c2c1)-c1ccccc1C(=O)NC3Cc1ccc(O)cc1 (configuration not stated) | 0.103 µM [rising, full curve, poor fit] | –
COc1ccc(-c2nn(-c3ccccc3)cc2CO)cc1 | 3.66 µM [rising, partial curve, poor fit] | –
CC(=O)Nc1ccc(Sc2ncnc3scc(-c4ccccc4)c23)cc1 | 29.1 µM [falling, single point] | –
O=C(O)c1cc(-c2c[nH]c3ccccc23)nc2ccc3ccccc3c12 | 4.47 µM [falling, single point] | –
CCCCc1nnc(NC(=O)c2nc3nccc(C)n3n2)s1 | 25.1 µM [falling, single point] | –
CCc1cccc(NC(=S)N(CCOC)C2CCN(C(C)=O)CC2)c1 | 22.4 µM [rising, single point] | –
C#CCOCCOCCOCCNc1nc(N2CCN(C(=O)CCCCCCCCCCNC(=O)[C@@H](CCSC)n3cc(CCO)nn3)CC2)nc(N2CCN(C(=O)CCCCCCCCCCNC(=O)[C@H]([C@@H](C)CC)n3cc(CCCCCN)nn3)CC2)n1 | 14.6 µM [rising, partial curve] | –
Cc1cc(SCC(=O)N2CCCC2=O)nc2c(C)cccc12 | 7.31 µM [rising, partial curve, poor fit] | –
O=S(=O)(N1CCOCC1)n1nnc2ccccc21 | 23.1 µM [rising, single point] | –
COc1ccc2nc(SCC(=O)Nc3nccs3)[nH]c2c1 | 15.8 µM [falling, partial curve, poor fit] | –
CC(=O)c1c(C)[nH]c(C(=O)OCC(=O)NCCC(C)C)c1C | 22.4 µM [falling, partial curve, poor fit] | –
CC(=O)Nc1cccc(C(=O)/C=C/c2ccc(/C=C/C(=O)c3cccc(NC(C)=O)c3)cc2)c1 | 8.2 µM [falling, partial curve] | 23.1 µM [rising, partial curve, poor fit]
